Data on one molecule can be found in US20240327542A1.

The target in the assay is T1, AMG510 conjugated to the poly-Ser peptide containing a central Cys.
T1 sequence (peptide, AMG510 conjugated (central Cys); C-terminal (K-long chain Biotin)-amide): SSSSCSSSSW
As to the kind of experiment: yeast surface display, flow cytometry (FIG. 6). (A flow cytometer gives signals particle by particle.)

These are yes or no findings as the source states them, for the method shown. Some binding calls cover weakened binding; strength is not graded here.

B1: P2AMR-12 (protein)
VH: QVQLQESGPGLVKPSETLSLTCTVSGDSIINDPHYWGWIRQSPGKGLEWIGSTSHSGHTYFNPSLKSRVSMSIDVAKNQFSLNVRSVTAADTAVYYCARMRYYYSGTYPVYYFDYWGQGTLVTVSS
B1: the binding result was “binds”.
